Reference: the supplement of paper PMC7666118
This is one part of the list.

Protein sequences, listed by entry. Tags and fused reporters are not part of them. Lines headed by an entry give the natural chain unless they say otherwise; changes in a name come on top.
UniProt Q9Y263: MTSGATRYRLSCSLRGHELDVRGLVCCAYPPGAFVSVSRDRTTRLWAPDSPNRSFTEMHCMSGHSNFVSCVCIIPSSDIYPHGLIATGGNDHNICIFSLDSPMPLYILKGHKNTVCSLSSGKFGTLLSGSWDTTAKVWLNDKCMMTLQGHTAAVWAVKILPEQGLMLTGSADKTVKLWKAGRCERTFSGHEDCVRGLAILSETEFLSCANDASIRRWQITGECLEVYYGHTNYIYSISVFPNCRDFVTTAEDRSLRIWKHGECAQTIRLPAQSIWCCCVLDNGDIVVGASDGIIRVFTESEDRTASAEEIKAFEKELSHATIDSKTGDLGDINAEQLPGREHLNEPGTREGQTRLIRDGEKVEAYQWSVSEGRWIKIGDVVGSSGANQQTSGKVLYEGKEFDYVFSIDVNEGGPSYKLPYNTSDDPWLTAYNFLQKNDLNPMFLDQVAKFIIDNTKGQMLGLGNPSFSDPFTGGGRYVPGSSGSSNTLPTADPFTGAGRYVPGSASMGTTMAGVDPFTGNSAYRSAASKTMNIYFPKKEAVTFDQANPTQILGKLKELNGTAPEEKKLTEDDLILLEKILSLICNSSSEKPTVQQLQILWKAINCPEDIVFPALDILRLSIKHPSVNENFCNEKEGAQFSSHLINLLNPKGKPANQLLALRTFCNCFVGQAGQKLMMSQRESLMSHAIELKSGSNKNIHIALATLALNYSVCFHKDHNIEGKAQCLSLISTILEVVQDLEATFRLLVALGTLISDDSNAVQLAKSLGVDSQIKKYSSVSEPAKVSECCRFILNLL
UniProt Q8WUM4: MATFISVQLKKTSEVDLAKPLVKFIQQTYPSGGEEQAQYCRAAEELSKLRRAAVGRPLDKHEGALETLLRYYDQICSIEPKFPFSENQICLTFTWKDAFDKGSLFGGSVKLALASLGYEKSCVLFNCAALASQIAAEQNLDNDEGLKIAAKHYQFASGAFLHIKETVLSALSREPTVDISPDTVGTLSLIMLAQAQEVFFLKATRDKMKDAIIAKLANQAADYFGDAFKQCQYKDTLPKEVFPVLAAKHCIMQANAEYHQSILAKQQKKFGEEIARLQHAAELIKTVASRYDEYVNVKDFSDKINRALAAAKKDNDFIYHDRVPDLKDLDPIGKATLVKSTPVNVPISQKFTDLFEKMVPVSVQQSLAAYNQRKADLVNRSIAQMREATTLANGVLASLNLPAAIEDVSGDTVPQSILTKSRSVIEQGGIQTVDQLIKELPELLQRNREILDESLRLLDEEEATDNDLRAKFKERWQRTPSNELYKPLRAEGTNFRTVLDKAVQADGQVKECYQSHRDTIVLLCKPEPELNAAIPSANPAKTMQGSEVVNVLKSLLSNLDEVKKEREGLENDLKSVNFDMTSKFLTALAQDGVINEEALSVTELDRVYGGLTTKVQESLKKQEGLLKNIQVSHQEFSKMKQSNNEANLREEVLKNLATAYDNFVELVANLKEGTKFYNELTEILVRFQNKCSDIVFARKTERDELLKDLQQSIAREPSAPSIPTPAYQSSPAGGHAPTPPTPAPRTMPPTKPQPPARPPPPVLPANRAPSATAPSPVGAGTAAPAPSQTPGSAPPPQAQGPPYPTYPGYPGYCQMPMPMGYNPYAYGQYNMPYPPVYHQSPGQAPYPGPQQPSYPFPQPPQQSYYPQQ
UniProt Q9NXJ5: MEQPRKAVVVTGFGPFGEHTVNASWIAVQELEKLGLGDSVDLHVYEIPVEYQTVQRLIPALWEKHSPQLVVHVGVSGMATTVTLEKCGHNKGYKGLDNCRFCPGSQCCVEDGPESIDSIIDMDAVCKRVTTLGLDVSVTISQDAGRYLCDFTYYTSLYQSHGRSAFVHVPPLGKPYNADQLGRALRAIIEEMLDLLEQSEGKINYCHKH
UniProt P11940, whole entry: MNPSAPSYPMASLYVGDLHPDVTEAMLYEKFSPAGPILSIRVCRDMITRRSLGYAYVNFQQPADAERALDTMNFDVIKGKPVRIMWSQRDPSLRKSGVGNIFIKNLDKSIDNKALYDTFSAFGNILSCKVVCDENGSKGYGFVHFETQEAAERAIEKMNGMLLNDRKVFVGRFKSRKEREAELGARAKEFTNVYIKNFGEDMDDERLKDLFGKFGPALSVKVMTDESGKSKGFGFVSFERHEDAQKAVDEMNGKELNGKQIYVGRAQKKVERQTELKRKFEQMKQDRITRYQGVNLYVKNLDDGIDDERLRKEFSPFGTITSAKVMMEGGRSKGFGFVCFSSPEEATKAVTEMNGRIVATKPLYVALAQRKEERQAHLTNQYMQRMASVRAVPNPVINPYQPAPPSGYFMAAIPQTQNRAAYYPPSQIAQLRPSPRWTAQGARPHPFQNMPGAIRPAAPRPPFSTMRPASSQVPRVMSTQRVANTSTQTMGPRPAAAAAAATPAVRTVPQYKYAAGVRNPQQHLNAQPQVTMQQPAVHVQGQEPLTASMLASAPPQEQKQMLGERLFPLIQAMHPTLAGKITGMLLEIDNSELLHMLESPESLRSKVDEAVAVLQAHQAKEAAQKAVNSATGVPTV
UniProt Q9NWQ8: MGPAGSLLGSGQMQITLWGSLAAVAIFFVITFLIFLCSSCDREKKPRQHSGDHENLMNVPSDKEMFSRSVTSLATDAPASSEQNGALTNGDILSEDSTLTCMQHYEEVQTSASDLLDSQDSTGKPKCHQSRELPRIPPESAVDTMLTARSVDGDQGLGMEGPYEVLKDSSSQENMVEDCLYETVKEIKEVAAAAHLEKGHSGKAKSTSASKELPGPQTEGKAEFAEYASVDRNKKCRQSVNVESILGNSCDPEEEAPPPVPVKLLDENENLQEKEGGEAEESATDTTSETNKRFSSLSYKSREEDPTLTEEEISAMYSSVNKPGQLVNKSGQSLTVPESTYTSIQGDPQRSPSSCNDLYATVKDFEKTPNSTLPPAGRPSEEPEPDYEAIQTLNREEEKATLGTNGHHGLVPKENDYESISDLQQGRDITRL
UniProt Q86VP3, whole entry: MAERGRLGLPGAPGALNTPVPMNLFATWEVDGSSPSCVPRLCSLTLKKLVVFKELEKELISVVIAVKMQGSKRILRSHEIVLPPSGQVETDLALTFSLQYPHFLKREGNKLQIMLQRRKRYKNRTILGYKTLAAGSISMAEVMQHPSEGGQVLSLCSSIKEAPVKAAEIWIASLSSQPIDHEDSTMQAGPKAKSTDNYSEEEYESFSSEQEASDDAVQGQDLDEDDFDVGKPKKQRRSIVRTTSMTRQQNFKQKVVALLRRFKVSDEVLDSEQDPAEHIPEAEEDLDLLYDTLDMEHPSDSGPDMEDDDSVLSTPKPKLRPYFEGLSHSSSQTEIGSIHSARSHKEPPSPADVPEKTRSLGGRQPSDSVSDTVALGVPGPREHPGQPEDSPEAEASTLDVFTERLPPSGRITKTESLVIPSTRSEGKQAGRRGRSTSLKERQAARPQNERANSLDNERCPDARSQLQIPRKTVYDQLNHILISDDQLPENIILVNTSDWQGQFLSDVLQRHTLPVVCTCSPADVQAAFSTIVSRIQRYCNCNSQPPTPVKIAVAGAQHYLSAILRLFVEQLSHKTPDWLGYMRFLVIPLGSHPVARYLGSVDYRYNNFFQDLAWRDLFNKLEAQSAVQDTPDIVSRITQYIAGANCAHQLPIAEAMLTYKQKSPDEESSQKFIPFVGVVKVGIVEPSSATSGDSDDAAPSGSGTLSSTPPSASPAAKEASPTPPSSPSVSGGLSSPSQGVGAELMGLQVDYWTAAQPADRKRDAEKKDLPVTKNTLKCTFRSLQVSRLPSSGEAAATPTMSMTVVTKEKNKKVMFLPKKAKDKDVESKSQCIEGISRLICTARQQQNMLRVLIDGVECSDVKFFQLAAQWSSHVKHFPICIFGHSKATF
UniProt Q8NCC3: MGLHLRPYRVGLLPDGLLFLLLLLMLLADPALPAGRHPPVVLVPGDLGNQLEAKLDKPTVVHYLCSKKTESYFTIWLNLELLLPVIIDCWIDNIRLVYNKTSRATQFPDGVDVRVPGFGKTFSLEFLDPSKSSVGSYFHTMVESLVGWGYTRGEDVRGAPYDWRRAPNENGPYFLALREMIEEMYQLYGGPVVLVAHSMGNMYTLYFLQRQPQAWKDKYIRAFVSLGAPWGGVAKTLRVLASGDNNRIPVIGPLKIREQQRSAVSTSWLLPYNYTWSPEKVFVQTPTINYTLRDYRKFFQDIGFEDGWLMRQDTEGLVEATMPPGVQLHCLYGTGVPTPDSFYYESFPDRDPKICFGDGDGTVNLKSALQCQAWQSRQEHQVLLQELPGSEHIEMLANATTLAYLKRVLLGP
UniProt Q96S52: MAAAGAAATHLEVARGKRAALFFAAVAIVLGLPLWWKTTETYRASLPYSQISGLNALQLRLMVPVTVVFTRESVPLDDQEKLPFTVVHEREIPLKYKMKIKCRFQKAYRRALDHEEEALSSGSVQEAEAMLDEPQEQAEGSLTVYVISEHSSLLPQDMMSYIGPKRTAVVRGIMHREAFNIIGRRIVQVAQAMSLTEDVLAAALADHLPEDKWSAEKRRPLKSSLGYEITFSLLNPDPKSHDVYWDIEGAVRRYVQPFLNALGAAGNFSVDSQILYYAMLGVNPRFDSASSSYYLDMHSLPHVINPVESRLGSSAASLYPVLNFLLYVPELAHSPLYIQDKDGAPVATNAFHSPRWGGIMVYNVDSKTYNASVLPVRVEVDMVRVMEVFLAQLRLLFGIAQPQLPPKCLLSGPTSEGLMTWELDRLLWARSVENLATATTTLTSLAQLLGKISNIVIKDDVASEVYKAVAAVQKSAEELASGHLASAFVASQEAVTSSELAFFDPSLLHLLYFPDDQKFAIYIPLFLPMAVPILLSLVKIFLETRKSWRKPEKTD
UniProt P07237: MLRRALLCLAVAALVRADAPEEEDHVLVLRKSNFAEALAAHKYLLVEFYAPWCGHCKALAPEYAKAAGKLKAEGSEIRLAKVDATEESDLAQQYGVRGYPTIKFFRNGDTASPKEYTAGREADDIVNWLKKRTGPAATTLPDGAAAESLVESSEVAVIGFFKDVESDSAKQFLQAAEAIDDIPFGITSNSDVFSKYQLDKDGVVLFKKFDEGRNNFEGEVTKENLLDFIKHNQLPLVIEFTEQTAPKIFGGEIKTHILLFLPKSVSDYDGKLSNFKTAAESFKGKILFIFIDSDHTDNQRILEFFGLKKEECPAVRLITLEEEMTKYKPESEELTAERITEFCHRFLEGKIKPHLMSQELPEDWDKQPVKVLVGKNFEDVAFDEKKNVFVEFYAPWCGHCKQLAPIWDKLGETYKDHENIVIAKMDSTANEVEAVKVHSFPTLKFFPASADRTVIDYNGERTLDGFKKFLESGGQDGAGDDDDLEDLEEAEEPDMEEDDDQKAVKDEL
UniProt Q13442: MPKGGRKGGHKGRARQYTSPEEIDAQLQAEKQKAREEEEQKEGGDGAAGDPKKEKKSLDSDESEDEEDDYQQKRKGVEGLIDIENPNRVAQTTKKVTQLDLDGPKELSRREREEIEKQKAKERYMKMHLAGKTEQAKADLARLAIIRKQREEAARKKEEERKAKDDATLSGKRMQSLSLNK
UniProt Q8TCG2: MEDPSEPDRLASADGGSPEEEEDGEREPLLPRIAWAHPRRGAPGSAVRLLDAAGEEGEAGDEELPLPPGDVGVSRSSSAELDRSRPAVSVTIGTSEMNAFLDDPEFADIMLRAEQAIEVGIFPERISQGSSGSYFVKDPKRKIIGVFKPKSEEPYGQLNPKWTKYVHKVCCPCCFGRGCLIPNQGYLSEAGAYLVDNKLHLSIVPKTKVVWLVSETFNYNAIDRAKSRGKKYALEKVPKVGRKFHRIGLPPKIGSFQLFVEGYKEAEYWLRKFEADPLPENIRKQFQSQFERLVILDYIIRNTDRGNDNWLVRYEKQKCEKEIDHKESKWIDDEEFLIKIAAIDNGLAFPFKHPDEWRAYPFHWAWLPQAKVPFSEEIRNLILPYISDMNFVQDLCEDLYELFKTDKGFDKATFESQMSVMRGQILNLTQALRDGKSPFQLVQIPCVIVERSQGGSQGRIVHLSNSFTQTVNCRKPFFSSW
UniProt Q96HP4: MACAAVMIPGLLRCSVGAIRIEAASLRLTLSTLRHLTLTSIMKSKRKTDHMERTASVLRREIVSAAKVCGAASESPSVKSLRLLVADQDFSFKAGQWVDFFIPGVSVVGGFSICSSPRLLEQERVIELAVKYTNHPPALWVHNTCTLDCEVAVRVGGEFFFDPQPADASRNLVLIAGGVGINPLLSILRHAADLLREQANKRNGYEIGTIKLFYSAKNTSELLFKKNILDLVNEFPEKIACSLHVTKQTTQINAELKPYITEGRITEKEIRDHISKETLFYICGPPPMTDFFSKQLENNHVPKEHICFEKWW
UniProt O60925, whole entry: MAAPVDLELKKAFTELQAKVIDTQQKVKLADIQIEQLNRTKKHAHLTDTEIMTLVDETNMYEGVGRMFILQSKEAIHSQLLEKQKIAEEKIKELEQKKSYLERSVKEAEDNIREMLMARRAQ
UniProt Q9NUG6, whole entry: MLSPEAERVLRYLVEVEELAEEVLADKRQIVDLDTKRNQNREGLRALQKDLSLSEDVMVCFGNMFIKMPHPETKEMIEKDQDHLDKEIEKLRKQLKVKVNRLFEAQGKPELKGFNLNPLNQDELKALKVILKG

These targets were tested with COc1ccc(Cn2ccc3cc(C)c(C(=O)NO)cc32)cc1 (assay: dose-dependent thermal stabilisation call (2D-TPP, DLPTP, 10% FDR) (binary (1 = stabilised)); higher = stabilised by the compound). Settings: system: HL-60 intact cells; concentration range 0.04-10 µM.
Description: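 2D thermal proteome profiling in intact HL-60 cells treated with BRD-3811 (0, 0.04, 0.29, 2, 10 uM) for 90 min at 37 C, then heated 3 min at one of 12 temperatures (42-63.9 C). Soluble protein was quantified by TMT10 MS. The value is the DLPTP call of the paper: dose-dependent thermal stabilisation over all temperatures at 10% FDR (F-test of a dose-response against a flat model); one experiment, one call per tested protein.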

| Target | dose-dependent thermal stabilisation call |
| --- | --- |
| PDCD11 (UniProt Q14690) | inactive: 0 |
| PLAA (UniProt Q9Y263) | inactive: 0 |
| OS9 (UniProt Q13438) | inactive: 0 |
| PFDN6 (UniProt O15212) | inactive: 0 |
| PKM2 (UniProt P14618) | inactive: 0 |
| PDCD6IP (UniProt Q8WUM4) | inactive: 0 |
| PGPEP1 (UniProt Q9NXJ5) | inactive: 0 |
| PEG10 (UniProt Q86TG7) | inactive: 0 |
| PAIP1 (UniProt Q9H074) | inactive: 0 |
| PABPC1 (UniProt P11940) | inactive: 0 |
| PIGG (UniProt Q5H8A4) | inactive: 0 |
| PGAM5 (UniProt Q96HS1) | inactive: 0 |
| PAG1 (UniProt Q9NWQ8) | inactive: 0 |
| PIK3C2A (UniProt O00443) | inactive: 0 |
| OPA3 (UniProt Q9H6K4) | inactive: 0 |
| PACS2 (UniProt Q86VP3) | inactive: 0 |
| PEPD (UniProt P12955) | inactive: 0 |
| PHF3 (UniProt Q92576) | inactive: 0 |

Not a retest: entries from further up.

| Target | dose-dependent thermal stabilisation call |
| --- | --- |
| PFDN6 (UniProt O15212) | inactive: 0 |
| PKM2 (UniProt P14618) | inactive: 0 |
| PDCD6IP (UniProt Q8WUM4) | inactive: 0 |
| PGPEP1 (UniProt Q9NXJ5) | inactive: 0 |
| PEG10 (UniProt Q86TG7) | inactive: 0 |
| PAIP1 (UniProt Q9H074) | inactive: 0 |
| PABPC1 (UniProt P11940) | inactive: 0 |

(listing goes on)

| Target | dose-dependent thermal stabilisation call |
| --- | --- |
| PLA2G15 (UniProt Q8NCC3) | inactive: 0 |
| PFDN5 (UniProt Q99471) | inactive: 0 |
| PAPOLA (UniProt P51003) | inactive: 0 |
| PIGS (UniProt Q96S52) | inactive: 0 |
| PI4KB (UniProt Q9UBF8) | inactive: 0 |
| PHF10 (UniProt Q8WUB8) | inactive: 0 |
| PHF23 (UniProt Q9BUL5) | inactive: 0 |
| P4HB (UniProt P07237) | inactive: 0 |
| PLCB3 (UniProt Q01970) | inactive: 0 |
| PEX13 (UniProt Q92968) | inactive: 0 |
| PDAP1 (UniProt Q13442) | inactive: 0 |
| PHF19 (UniProt Q5T6S3) | inactive: 0 |
| PI4K2B (UniProt Q8TCG2) | inactive: 0 |
| OXNAD1 (UniProt Q96HP4) | inactive: 0 |
| PIP5K1C (UniProt O60331) | inactive: 0 |
| PFDN1 (UniProt O60925) | inactive: 0 |
| PDRG1 (UniProt Q9NUG6) | inactive: 0 |
| PCNA (UniProt P12004) | inactive: 0 |
